Data published in PMC10754121.
No constants are given. Whether binding was seen depends on the method and setting. Binding seen in cells or lysates may run through a third protein. These calls come from enrichment with a bait or labelling near it, and not all partners need be listed.

By UniProt entry, the sequences of proteins in these tests, tags left out.
UniProt O95573: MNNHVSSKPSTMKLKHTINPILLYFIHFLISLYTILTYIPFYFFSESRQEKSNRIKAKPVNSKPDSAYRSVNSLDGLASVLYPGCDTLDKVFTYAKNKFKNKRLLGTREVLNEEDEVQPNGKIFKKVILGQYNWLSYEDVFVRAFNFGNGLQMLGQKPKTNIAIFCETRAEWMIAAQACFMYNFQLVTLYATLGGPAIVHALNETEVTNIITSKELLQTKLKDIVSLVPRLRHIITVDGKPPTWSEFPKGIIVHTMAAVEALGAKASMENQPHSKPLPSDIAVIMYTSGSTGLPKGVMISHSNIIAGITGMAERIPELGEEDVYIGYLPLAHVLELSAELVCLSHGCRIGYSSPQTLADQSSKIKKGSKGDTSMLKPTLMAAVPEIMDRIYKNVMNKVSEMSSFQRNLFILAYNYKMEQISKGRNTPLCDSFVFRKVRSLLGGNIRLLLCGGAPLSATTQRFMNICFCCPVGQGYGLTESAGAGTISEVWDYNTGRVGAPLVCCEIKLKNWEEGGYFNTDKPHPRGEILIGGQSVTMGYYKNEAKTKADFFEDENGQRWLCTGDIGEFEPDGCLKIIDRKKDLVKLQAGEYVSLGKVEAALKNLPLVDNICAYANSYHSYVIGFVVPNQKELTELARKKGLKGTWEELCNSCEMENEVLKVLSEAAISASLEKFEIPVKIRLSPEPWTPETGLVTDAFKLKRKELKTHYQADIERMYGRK
UniProt O60488: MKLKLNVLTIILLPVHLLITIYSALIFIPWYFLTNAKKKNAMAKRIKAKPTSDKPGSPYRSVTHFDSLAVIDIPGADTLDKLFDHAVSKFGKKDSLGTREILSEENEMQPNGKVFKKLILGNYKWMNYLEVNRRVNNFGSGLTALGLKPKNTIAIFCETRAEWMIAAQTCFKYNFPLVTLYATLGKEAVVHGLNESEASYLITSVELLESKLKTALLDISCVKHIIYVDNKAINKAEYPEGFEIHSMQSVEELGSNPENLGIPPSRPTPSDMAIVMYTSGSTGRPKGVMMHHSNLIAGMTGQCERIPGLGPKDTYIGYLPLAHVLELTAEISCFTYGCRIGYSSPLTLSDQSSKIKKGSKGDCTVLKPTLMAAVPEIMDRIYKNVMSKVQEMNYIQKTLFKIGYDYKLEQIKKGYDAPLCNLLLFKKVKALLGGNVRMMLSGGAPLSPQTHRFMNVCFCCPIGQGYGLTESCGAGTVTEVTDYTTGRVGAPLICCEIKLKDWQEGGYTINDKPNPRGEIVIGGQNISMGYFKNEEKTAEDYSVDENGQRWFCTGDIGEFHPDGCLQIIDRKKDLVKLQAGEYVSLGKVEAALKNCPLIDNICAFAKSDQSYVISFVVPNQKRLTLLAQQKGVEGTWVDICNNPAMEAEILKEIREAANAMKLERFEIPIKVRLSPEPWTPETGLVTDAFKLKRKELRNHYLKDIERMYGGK
UniProt Q9Y4X5: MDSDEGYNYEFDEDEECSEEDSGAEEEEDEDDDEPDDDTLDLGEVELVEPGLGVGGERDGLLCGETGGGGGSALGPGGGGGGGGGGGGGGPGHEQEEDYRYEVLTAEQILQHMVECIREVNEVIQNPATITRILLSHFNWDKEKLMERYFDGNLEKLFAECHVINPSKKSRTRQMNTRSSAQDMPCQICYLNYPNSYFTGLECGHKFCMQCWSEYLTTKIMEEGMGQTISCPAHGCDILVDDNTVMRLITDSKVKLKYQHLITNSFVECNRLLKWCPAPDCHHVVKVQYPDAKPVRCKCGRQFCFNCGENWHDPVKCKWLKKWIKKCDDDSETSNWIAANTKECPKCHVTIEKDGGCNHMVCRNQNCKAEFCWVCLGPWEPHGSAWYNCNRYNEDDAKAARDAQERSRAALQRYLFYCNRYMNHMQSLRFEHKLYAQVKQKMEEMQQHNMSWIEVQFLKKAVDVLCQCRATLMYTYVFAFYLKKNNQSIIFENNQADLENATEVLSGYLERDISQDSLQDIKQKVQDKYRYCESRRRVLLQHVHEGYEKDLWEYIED
UniProt Q7Z6E9: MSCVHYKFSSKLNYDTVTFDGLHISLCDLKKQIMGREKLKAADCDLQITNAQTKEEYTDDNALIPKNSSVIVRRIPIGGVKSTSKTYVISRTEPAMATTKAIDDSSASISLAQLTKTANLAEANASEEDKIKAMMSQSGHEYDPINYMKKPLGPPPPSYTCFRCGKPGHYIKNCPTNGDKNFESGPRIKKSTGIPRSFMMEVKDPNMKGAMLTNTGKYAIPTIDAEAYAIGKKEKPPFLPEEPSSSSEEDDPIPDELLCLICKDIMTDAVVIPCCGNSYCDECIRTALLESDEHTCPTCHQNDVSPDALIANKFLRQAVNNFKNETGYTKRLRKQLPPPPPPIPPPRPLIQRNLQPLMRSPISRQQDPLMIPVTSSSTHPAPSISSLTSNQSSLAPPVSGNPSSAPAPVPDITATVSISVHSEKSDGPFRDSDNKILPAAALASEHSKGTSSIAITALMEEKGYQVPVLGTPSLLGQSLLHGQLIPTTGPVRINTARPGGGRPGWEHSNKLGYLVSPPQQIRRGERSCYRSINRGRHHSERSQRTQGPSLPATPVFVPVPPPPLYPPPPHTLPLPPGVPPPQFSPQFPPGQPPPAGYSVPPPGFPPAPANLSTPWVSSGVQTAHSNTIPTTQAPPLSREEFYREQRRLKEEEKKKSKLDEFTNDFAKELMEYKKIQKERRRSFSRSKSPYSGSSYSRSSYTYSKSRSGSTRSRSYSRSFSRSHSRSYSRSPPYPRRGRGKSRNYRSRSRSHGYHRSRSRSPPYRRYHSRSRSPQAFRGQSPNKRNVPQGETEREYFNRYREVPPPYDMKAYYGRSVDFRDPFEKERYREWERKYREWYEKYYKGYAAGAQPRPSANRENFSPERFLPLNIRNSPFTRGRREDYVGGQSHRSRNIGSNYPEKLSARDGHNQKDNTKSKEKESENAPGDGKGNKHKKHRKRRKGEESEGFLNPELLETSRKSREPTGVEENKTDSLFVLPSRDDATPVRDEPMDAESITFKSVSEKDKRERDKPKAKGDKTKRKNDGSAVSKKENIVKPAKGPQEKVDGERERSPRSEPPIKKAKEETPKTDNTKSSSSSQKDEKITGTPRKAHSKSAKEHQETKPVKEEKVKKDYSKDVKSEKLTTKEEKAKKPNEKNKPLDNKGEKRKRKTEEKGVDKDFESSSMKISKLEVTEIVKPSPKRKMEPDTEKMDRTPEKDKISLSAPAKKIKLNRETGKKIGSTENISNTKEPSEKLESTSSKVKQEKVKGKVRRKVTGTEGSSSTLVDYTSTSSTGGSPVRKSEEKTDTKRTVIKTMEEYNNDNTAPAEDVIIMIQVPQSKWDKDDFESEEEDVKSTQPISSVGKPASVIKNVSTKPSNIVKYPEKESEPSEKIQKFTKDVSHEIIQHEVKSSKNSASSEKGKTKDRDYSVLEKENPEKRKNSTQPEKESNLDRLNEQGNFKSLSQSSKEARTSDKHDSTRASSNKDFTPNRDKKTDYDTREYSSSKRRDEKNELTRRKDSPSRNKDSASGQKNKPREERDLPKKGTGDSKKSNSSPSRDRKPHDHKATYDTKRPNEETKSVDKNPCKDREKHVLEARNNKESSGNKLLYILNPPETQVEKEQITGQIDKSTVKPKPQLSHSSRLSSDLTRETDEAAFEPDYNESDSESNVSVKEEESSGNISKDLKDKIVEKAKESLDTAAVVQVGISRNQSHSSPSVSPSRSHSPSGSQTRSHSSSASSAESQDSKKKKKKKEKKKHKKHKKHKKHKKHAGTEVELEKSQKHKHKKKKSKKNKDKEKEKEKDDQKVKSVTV
UniProt Q9UPN9: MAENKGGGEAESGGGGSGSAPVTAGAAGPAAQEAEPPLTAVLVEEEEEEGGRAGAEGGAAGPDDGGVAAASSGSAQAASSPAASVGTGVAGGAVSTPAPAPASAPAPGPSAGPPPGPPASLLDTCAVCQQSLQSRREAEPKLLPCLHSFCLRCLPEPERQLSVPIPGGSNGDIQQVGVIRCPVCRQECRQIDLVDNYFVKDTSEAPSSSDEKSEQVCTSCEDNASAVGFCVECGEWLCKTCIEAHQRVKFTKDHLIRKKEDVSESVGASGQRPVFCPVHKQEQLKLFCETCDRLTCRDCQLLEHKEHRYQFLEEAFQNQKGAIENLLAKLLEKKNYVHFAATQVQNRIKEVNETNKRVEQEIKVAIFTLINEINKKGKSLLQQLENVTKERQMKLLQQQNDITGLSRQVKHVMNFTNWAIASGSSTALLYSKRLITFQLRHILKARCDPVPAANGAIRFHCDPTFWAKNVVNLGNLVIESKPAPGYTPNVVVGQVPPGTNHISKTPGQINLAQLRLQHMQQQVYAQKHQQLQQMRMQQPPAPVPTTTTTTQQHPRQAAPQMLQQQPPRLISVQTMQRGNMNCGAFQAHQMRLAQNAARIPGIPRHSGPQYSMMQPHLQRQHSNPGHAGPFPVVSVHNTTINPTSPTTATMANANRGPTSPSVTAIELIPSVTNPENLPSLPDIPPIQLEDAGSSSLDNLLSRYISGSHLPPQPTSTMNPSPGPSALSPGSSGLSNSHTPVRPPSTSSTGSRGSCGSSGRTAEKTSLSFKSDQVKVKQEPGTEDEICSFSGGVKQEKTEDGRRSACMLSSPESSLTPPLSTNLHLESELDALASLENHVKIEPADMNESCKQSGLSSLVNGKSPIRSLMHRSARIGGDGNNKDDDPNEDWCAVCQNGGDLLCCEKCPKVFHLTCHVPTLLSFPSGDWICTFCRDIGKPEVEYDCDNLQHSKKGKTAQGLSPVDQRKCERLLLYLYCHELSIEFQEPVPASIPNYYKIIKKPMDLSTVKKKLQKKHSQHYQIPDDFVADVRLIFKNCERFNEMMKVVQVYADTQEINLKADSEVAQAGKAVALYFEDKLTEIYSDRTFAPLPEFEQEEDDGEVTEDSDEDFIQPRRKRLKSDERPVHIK
UniProt Q14258: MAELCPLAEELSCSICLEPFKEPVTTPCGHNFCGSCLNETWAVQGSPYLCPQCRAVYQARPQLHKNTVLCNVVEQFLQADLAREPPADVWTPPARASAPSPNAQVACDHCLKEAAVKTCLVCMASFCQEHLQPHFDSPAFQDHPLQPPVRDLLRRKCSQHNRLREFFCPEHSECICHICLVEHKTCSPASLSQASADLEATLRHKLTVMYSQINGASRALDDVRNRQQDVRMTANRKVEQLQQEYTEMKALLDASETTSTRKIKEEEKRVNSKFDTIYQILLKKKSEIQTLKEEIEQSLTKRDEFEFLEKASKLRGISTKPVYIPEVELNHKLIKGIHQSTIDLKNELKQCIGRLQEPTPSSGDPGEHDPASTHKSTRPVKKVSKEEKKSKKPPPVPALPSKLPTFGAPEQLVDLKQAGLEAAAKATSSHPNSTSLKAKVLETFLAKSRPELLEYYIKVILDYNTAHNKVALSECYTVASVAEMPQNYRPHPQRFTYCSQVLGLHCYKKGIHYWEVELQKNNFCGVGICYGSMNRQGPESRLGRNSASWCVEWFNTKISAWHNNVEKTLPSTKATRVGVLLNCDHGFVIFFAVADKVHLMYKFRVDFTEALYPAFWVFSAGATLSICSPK

B1: CBLL1 (hit of the ACSL4 mass spectrometry) (enzyme, UniProt Q75N03 1-491)
chain: MDHTDNELQGTNSSGSLGGLDVRRRIPIKLISKQANKAKPAPRTQRTINRMPAKAPPGDEEGFDYNEEERYDCKGGELFANQRRFPGHLFWDFQINILGEKDDTPVHFCDKCGLPIKIYGRMIPCKHVFCYDCAILHEKKGDKMCPGCSDPVQRIEQCTRGSLFMCSIVQGCKRTYLSQRDLQAHINHRHMRAGKPVTRASLENVHPPIAPPPTEIPERFIMPPDKHHMSHIPPKQHIMMPPPPLQHVPHEHYNQPHEDIRAPPAELSMAPPPPRSVSQETFRISTRKHSNLITVPIQDDSNSGAREPPPPAPAPAHHHPEYQGQPVVSHPHHIMPPQQHYAPPPPPPPPISHPMPHPPQAAGTPHLVYSQAPPPPMTSAPPPITPPPGHIIAQMPPYMNHPPPGPPPPQHGGPPVTAPPPHHYNPNSLPQFTEDQGTLSPPFTQPGGMSPGIWPAPRGPPPPPRLQGPPSQTPLPGPHHPDQTRYRPYYQ
B2: RNF25 (hit of the ACSL4 mass spectrometry) (enzyme, UniProt Q96BH1 1-459)
chain: MAASASAAAGEEDWVLPSEVEVLESIYLDELQVIKGNGRTSPWEIYITLHPATAEDQDSQYVCFTLVLQVPAEYPHEVPQISIRNPRGLSDEQIHTILQVLGHVAKAGLGTAMLYELIEKGKEILTDNNIPHGQCVICLYGFQEKEAFTKTPCYHYFHCHCLARYIQHMEQELKAQGQEQEQERQHATTKQKAVGVQCPVCREPLVYDLASLKAAPEPQQPMELYQPSAESLRQQEERKRLYQRQQERGGIIDLEAERNRYFISLQQPPAPAEPESAVDVSKGSQPPSTLAAELSTSPAVQSTLPPPLPVATQHICEKIPGTRSNQQRLGETQKAMLDPPKPSRGPWRQPERRHPKGGECHAPKGTRDTQELPPPEGPLKEPMDLKPEPHSQGVEGPPQEKGPGSWQGPPPRRTRDCVRWERSKGRTPGSSYPRLPRGQGAYRPGTRRESLGLESKDGS
B3: PJA1 (hit of the ACSL4 mass spectrometry) (enzyme, UniProt Q8NG27 1-643)
chain: MGQESSKPVWPNPTGGYQSNTGRRYGRRHAYVSFRPPTSQRERIASQRKTNSEVPMHRSAPSQTTKRSRSPFSTTRRSWDDSESSGTNLNIDNEDYSRYPPREYRASGSRRGMAYGHIDSYGADDSEEEGAGPVERPPVRGKTGKFKDDKLYDPEKGARSLAGPPPHFSSFSRDVREERDKLDPVPAARCSASRADFLPQSSVASQSSSEGKLATKGDSSERERREQNLPARPSRAPVSICGGGENTSKSAEEPVVRPKIRNLASPNCVKPKIFFDTDDDDDMPHSTSRWRDTANDNEGHSDGLARRGRGESSSGYPEPKYPEDKREARSDQVKPEKVPRRRRTMADPDFWTHSDDYYKYCDEDSDSDKEWIAALRRKYRSREQTLSSSGESWETLPGKEEREPPQAKVSASTGTSPGPGASASAGAGAGASAGSNGSNYLEEVREPSLQEEQASLEEGEIPWLQYHENDSSSEGDNDSGHELMQPGVFMLDGNNNLEDDSSVSEDLEVDWSLFDGFADGLGVAEAISYVDPQFLTYMALEERLAQAMETALAHLESLAVDVEVANPPASKESIDALPEILVTEDHGAVGQEMCCPICCSEYVKGEVATELPCHHYFHKPCVSIWLQKSGTCPVCRCMFPPPL

molecular target: T1, CARM1 (enriched by IP for mass spectrometry) (UniProt Q86X55); test: affinity purification with mass spectrometry; CARM1 enriched by IP, separated by SDS-PAGE, gel bands digested with trypsin, Orbitrap Fusion; cells not given
T1 sequence: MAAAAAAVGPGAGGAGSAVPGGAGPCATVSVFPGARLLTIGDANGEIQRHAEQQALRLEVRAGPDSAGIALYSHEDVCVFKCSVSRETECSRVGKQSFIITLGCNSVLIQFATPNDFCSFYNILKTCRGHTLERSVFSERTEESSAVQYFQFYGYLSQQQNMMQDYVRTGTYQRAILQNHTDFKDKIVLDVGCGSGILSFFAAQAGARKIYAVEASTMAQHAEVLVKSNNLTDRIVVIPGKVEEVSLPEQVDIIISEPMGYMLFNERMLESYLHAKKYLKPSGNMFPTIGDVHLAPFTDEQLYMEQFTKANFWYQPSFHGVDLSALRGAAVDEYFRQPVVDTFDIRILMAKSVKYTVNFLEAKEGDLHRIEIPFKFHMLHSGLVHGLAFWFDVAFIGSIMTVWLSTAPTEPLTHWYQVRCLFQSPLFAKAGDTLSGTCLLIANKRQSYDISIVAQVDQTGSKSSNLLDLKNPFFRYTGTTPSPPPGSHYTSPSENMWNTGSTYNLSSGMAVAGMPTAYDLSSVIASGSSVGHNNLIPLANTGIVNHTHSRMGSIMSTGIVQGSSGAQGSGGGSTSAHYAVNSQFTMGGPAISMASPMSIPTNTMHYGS

binding, binds:
ACSL3 (hit of the CARM1 mass spectrometry) (from UniProt O95573 1-720) (enzyme)

molecular target: ACSL4 (in the IP samples for mass spectrometry) (UniProt O60488); test: affinity purification with mass spectrometry; ACSL4 enriched by IP, separated by SDS-PAGE, gel bands digested with trypsin, Orbitrap Fusion; cells not given

binding, binds:
ARIH1 (hit of the ACSL4 mass spectrometry) (from UniProt Q9Y4X5 1-557) (enzyme)
RBBP6 (hit of the ACSL4 mass spectrometry) (from UniProt Q7Z6E9 1-1792) (enzyme)
TRIM33 (hit of the ACSL4 mass spectrometry) (from UniProt Q9UPN9 1-1127) (enzyme)
TRIM25 (hit of the ACSL4 mass spectrometry) (from UniProt Q14258 1-630) (enzyme)
B1
B2
B3
